PubChem BioAssay AID1224828, NIAID, 2016
Purpose: 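Knock-downs that increase or decrease LPS-induced p65 nuclear translocation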 (primary screen). System: mouse RAW264.7 G9 macrophage reporter cells (GFP-p65, Tnf promoter-mCherry). Knock-down reagent: siRNA pool against mouse genes, 100 nM. Time to read-out: 2 days siRNA transfection, then 40 min LPS before fixation. Challenge: LPS (Salmonella minnesota R595) at 10 ng/ml. Detection: 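Microscopy ratio of nuclear to perinuclear-ring GFP-p65 signal, scaled to the plate median; gene score is the average of two replicate robust z-scores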. Direction: p65 translocation robust z-score: higher = more nuclear NF-kappaB p65 after LPS than the plate median; nuclear/cytoplasmic p65 ratio: higher = more nuclear NF-kappaB p65. Active means: 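Called active when z exceeds 3.3 or falls under -1.56 (median of Tlr4 controls), giving activity score of at least 50; no calls for control wells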. Calls: active = hit (p65 shift raised or lowered); inactive = no clear change.
This is one part, drawn at random, of about 17,000 reagents. Of all reagents, 762 (4.5%) were called active. 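Active calls include both raised and lowered p65 entry, mostly lowered; wells with fewer than 50 cells lack a z-score.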 Raw values are not corrected between plates. Unmarked entries are inactive. Reagents against one gene are numbered here. Reagent sequences are not shown.

gene	pool no.	p65 translocation robust z-score	nuclear/cytoplasmic p65 ratio, rep 1	nuclear/cytoplasmic p65 ratio, rep 2	low cell count flag
Mrpl18 (GeneID 67681)	1	1.2	1.98	1.77	enough cells to score
Apol7c (GeneID 108956)	1	1.19	1.6	1.37	enough cells to score
Fbp2 (GeneID 14120)	1	0.19	1.51	1.26	enough cells to score
Gpr142 (GeneID 217302)	1	0.73	1.55	1.45	enough cells to score
Zkscan14 (GeneID 67235)	1	-1.76 (active)	1.17	1.06	enough cells to score
Bhmt (GeneID 12116)	1	-2.07 (active)	1.01	1.24	enough cells to score
Kti12 (GeneID 100087)	1	-0.55	1.43	1.4	enough cells to score
Pcdhb10 (GeneID 93881)	1	-0.5	1.47	1.19	enough cells to score
Gemin8 (GeneID 237221)	1	0.51	1.67	1.91	enough cells to score
Coro6 (GeneID 216961)	1	1.54	1.76	2.08	enough cells to score
Dlg4 (GeneID 13385)	1		1.62	1.5	fewer than 50 cells per well; well left out of scoring
Zfp947 (GeneID 210853)	1	-1.43	1.24	1.36	enough cells to score
Tmem45b (GeneID 235135)	1	-0.37	1.58	1.71	enough cells to score
Or1j16 (GeneID 258947)	1	-0.74	1.55	1.28	enough cells to score
Caln1 (GeneID 140904)	1	-1.05	1.53	1.51	enough cells to score
Nxf2 (GeneID 83454)	1	-1.95 (active)	1.46	1.2	enough cells to score
2300002M23Rik (GeneID 69542)	1		1.42	1.44	fewer than 50 cells per well; well left out of scoring
Atp5me (GeneID 11958)	1	-0.92	1.53	1.32	enough cells to score
Gprc5b (GeneID 64297)	1	0.45	1.51	1.71	enough cells to score
St3gal3 (GeneID 20441)	1	1.47	1.63	1.39	enough cells to score
Adamts2 (GeneID 216725)	1	-0.7	1.5	1.53	enough cells to score
Cav2 (GeneID 12390)	1	0.2	1.51	1.39	enough cells to score
Cmtm5 (GeneID 67272)	1	0.76	1.7	1.91	enough cells to score
Sybu (GeneID 319613)	1		1.04	1.09	fewer than 50 cells per well; well left out of scoring
Sybu (GeneID 319613)	2	-0.64	1.4	1.32	enough cells to score
Lgals6 (GeneID 16857)	1	-0.02	1.73	1.34	enough cells to score
4930429B21Rik (GeneID 67576)	1		1.55	1.55	fewer than 50 cells per well; well left out of scoring
Fkbp1a (GeneID 14225)	1	-0.47	1.31	1.37	enough cells to score
Wt1 (GeneID 22431)	1	-0.15	1.51	1.47	enough cells to score
Lpgat1 (GeneID 226856)	1	-1.16	1.3	1.77	enough cells to score
Efhd2 (GeneID 27984)	1		1.1	1.23	fewer than 50 cells per well; well left out of scoring
Ube2e3 (GeneID 22193)	1	-0.13	1.61	1.37	enough cells to score
Ephb3 (GeneID 13845)	1	1	1.91	1.46	enough cells to score
Onecut1 (GeneID 15379)	1	-0.33	1.44	1.34	enough cells to score
Lamp5 (GeneID 76161)	1	-1.02	1.11	1.33	enough cells to score

Called active, among the entries above:
gene	pool no.	p65 translocation robust z-score	nuclear/cytoplasmic p65 ratio, rep 1	nuclear/cytoplasmic p65 ratio, rep 2	low cell count flag
Zkscan14 (GeneID 67235)	1	-1.76 (active)	1.17	1.06	enough cells to score
Bhmt (GeneID 12116)	1	-2.07 (active)	1.01	1.24	enough cells to score
Nxf2 (GeneID 83454)	1	-1.95 (active)	1.46	1.2	enough cells to score

The listing continues:
gene	pool no.	p65 translocation robust z-score	nuclear/cytoplasmic p65 ratio, rep 1	nuclear/cytoplasmic p65 ratio, rep 2	low cell count flag
Ifna2 (GeneID 15965)	1	0.31	1.47	1.42	enough cells to score
Trex1 (GeneID 22040)	1	-0.6	1.3	1.12	enough cells to score
Dlx6 (GeneID 13396)	1	-1.91 (active)	1.21	1.14	enough cells to score
Pcsk2 (GeneID 18549)	1	-1.41	1.25	1.11	enough cells to score
Or5aq7 (GeneID 258766)	1	-1.08	1.45	1.28	enough cells to score
Fbxl7 (GeneID 448987)	1	-0.23	1.55	1.5	enough cells to score
Uhrf2 (GeneID 109113)	1	-0.23	1.49	1.46	enough cells to score
Cdk10 (GeneID 234854)	1	-0.05	1.64	1.41	enough cells to score
Rnf128 (GeneID 66889)	1		1.1	1.2	fewer than 50 cells per well; well left out of scoring
Asb5 (GeneID 76294)	1	0.17	1.57	1.6	enough cells to score
Insl5 (GeneID 23919)	1	-0.45	1.45	1.29	enough cells to score
Gjc1 (GeneID 14615)	1	0.26	1.44	1.43	enough cells to score
4933414I15Rik (GeneID 74408)	1		1.3	1.35	fewer than 50 cells per well; well left out of scoring
Smarcc1 (GeneID 20588)	1	-1.16	1.43	1.35	enough cells to score
Sgcd (GeneID 24052)	1	-0.68	1.52	1.39	enough cells to score
Frat1 (GeneID 14296)	1		1.4	1.29	fewer than 50 cells per well; well left out of scoring
Dcbld2 (GeneID 73379)	1	-0.37	1.54	1.47	enough cells to score
Styxl1 (GeneID 76571)	1	-0.68	1.48	1.54	enough cells to score
Alkbh3 (GeneID 69113)	1	0.68	1.64	1.79	enough cells to score
Siral2 (GeneID 73225)	1		1.18	1.12	fewer than 50 cells per well; well left out of scoring
Kremen1 (GeneID 84035)	1	-1.06	1.3	1.27	enough cells to score
Gphr (GeneID 67549)	1	-0.45	1.53	1.56	enough cells to score
Kcnq5 (GeneID 226922)	1	0.52	1.58	1.42	enough cells to score
Clrn3 (GeneID 212070)	1	1.76	1.81	2.01	enough cells to score
Phxr2 (GeneID 18687)	1	0.94	1.56	1.36	enough cells to score
Serpind1 (GeneID 15160)	1	-1.36	1.38	1.33	enough cells to score
Vnn3 (GeneID 26464)	1	-0.55	1.28	1.2	enough cells to score
Ptpn1 (GeneID 19246)	1	-0.48	1.48	1.3	enough cells to score
Irf5 (GeneID 27056)	1	0.04	1.47	1.39	enough cells to score
Prkcq (GeneID 18761)	1	-0.44	1.65	1.3	enough cells to score
Rtf2 (GeneID 66404)	1		1.26	0.91	fewer than 50 cells per well; well left out of scoring
Rtf2 (GeneID 66404)	2	-2.23 (active)	1.15	1.16	enough cells to score
Commd3 (GeneID 12238)	1	1.25	1.7	2.05	enough cells to score
Or52z13 (GeneID 259049)	1	-2.22 (active)	1.12	1.01	enough cells to score
Sclt1 (GeneID 67161)	1	1.72	1.63	1.55	enough cells to score
Cyp26a1 (GeneID 13082)	1	-0.03	1.53	1.82	enough cells to score
Or8g34 (GeneID 258328)	1	0.65	1.52	1.33	enough cells to score
Rasal1 (GeneID 19415)	1	-0.41	1.47	1.08	enough cells to score
Tfap2c (GeneID 21420)	1	-0.01	1.54	1.5	enough cells to score
Jade1 (GeneID 269424)	1	-0.03	1.43	1.24	enough cells to score
